Data as given in PubChem BioAssay AID1224828 (NIAID, 2016).

- Assay: 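Find genes required for NF-kappaB p65 moving into the nucleus after LPS in mouse macrophages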 (primary screen)
- Cells: mouse RAW264.7 G9 macrophage reporter cells (GFP-p65, Tnf promoter-mCherry)
- Reagents: siRNA pool against mouse genes, 100 nM
- Duration: 2 days siRNA transfection, then 40 min LPS before fixation
- Treatment: LPS (Salmonella minnesota R595) at 10 ng/ml
- Detection: 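Imaged p65 nuclear translocation ratio, normalised to the plate median, converted to robust z-scores and averaged across two replicates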
- Scale: p65 translocation robust z-score: higher = more nuclear NF-kappaB p65 after LPS than the plate median; nuclear/cytoplasmic p65 ratio: higher = more nuclear NF-kappaB p65
- Active means: 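Called active when z exceeds 3.3 or falls under -1.56 (median of Tlr4 controls), giving activity score of at least 50; no calls for control wells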
- Calls: active = hit (p65 shift raised or lowered); inactive = no clear change
The deposit covers about 17,000 reagents; shown is a part drawn at random. Over the whole deposit, 762 (4.5%) were called active. 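Active calls include both raised and lowered p65 entry, mostly lowered; wells with fewer than 50 cells lack a z-score.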 The raw values are shown without normalisation. A number with no mark means an inactive call. Reagent sequences are not shown.

Prim1 (DNA primase, p49 subunit) [SID315468684] — p65 translocation robust z-score = 2.49; nuclear/cytoplasmic p65 ratio, rep 1 = 1.86; nuclear/cytoplasmic p65 ratio, rep 2 = 1.72; low cell count flag = enough cells to score
Hnrnpdl (heterogeneous nuclear ribonucleoprotein D-like) [SID315470886] — p65 translocation robust z-score = 0.28; nuclear/cytoplasmic p65 ratio, rep 1 = 1.53; nuclear/cytoplasmic p65 ratio, rep 2 = 1.73; low cell count flag = enough cells to score
Shmt2 (serine hydroxymethyltransferase 2 (mitochondrial)) [SID315476671] — p65 translocation robust z-score = -1.34; nuclear/cytoplasmic p65 ratio, rep 1 = 1.33; nuclear/cytoplasmic p65 ratio, rep 2 = 1.39; low cell count flag = enough cells to score
2900052N01Rik (RIKEN cDNA 2900052N01 gene) [SID315474667] — nuclear/cytoplasmic p65 ratio, rep 1 = 0.997; nuclear/cytoplasmic p65 ratio, rep 2 = 1.86; low cell count flag = fewer than 50 cells per well; well left out of scoring
Medag (mesenteric estrogen dependent adipogenesis) [SID315474116] — p65 translocation robust z-score = 1.06; nuclear/cytoplasmic p65 ratio, rep 1 = 1.47; nuclear/cytoplasmic p65 ratio, rep 2 = 1.63; low cell count flag = enough cells to score
Cdk11b (cyclin dependent kinase 11B) [SID315465888] — nuclear/cytoplasmic p65 ratio, rep 1 = 1.98; nuclear/cytoplasmic p65 ratio, rep 2 = 1.33; low cell count flag = fewer than 50 cells per well; well left out of scoring
Tnfaip1 (tumor necrosis factor, alpha-induced protein 1 (endothelial)) [SID315469759] — p65 translocation robust z-score = -1.39; nuclear/cytoplasmic p65 ratio, rep 1 = 1.35; nuclear/cytoplasmic p65 ratio, rep 2 = 1.3; low cell count flag = enough cells to score
Pfkl (phosphofructokinase, liver, B-type) [SID315468478] — p65 translocation robust z-score = 0.75; nuclear/cytoplasmic p65 ratio, rep 1 = 1.73; nuclear/cytoplasmic p65 ratio, rep 2 = 1.53; low cell count flag = enough cells to score
Per1 (period circadian clock 1) [SID315468467] — p65 translocation robust z-score = 0.26; nuclear/cytoplasmic p65 ratio, rep 1 = 1.43; nuclear/cytoplasmic p65 ratio, rep 2 = 1.5; low cell count flag = enough cells to score
Dock11 (dedicator of cytokinesis 11) [SID315475225] — nuclear/cytoplasmic p65 ratio, rep 1 = 1.34; nuclear/cytoplasmic p65 ratio, rep 2 = 1.46; low cell count flag = fewer than 50 cells per well; well left out of scoring
Rassf9 [SID315479350] — p65 translocation robust z-score = 1.03; nuclear/cytoplasmic p65 ratio, rep 1 = 1.62; nuclear/cytoplasmic p65 ratio, rep 2 = 1.32; low cell count flag = enough cells to score
Taar2 (trace amine-associated receptor 2) [SID315477602] — p65 translocation robust z-score = -0.02; nuclear/cytoplasmic p65 ratio, rep 1 = 1.5; nuclear/cytoplasmic p65 ratio, rep 2 = 1.59; low cell count flag = enough cells to score
Pou2f2 (POU domain, class 2, transcription factor 2) [SID315468630] — p65 translocation robust z-score = -0.86; nuclear/cytoplasmic p65 ratio, rep 1 = 1.24; nuclear/cytoplasmic p65 ratio, rep 2 = 1.14; low cell count flag = enough cells to score
Tmc3 (transmembrane channel-like gene family 3) [SID315479083] — p65 translocation robust z-score = 1.06; nuclear/cytoplasmic p65 ratio, rep 1 = 1.53; nuclear/cytoplasmic p65 ratio, rep 2 = 1.29; low cell count flag = enough cells to score
Wnt3a (WNT family member 3A) [SID315470044] — p65 translocation robust z-score = -0.19; nuclear/cytoplasmic p65 ratio, rep 1 = 1.47; nuclear/cytoplasmic p65 ratio, rep 2 = 1.59; low cell count flag = enough cells to score
Timp3 (tissue inhibitor of metalloproteinase 3) [SID315469728] — p65 translocation robust z-score = 0.11; nuclear/cytoplasmic p65 ratio, rep 1 = 1.48; nuclear/cytoplasmic p65 ratio, rep 2 = 1.59; low cell count flag = enough cells to score
Mtm1 (X-linked myotubular myopathy gene 1) [SID315468021] — p65 translocation robust z-score = -0.46; nuclear/cytoplasmic p65 ratio, rep 1 = 1.34; nuclear/cytoplasmic p65 ratio, rep 2 = 1.32; low cell count flag = enough cells to score
Cyb561 (cytochrome b-561) [SID315466207] — p65 translocation robust z-score = 0.5; nuclear/cytoplasmic p65 ratio, rep 1 = 1.67; nuclear/cytoplasmic p65 ratio, rep 2 = 1.84; low cell count flag = enough cells to score
Spns1 (SPNS lysolipid transporter 1, lysophospholipid) [SID315474757] — nuclear/cytoplasmic p65 ratio, rep 1 = 1.39; nuclear/cytoplasmic p65 ratio, rep 2 = 1.45; low cell count flag = fewer than 50 cells per well; well left out of scoring
Hyal5 (hyaluronoglucosaminidase 5) [SID315474981] — p65 translocation robust z-score = -0.15; nuclear/cytoplasmic p65 ratio, rep 1 = 1.58; nuclear/cytoplasmic p65 ratio, rep 2 = 1.6; low cell count flag = enough cells to score
Gnaq (guanine nucleotide binding protein, alpha q polypeptide) [SID315466947] — p65 translocation robust z-score = -0.01; nuclear/cytoplasmic p65 ratio, rep 1 = 1.49; nuclear/cytoplasmic p65 ratio, rep 2 = 1.6; low cell count flag = enough cells to score
